{
  "source": "patent US20050209147A1",
  "about": "(Stanford University, published 2005)",
  "target": "Rho-kinase (ROCK), endogenous in Swiss 3T3 mouse fibroblasts (mouse)",
  "assay": "cell-based or functional assay",
  "data": [
    {"binder": "RQIKIWFQNRRMKWKKGLENIPEKWTPEVKHFCPNVPIILVGNKK", "note": "[P1-RhoA 92-119 fusion domain (Penetratin-1 fused through a glycine to human RhoA amino acids 92-119)]", "values": [
      {"measurement": "dose at which inhibition of LPA-induced stress fibers becomes significant", "result": 10, "unit": "µM"}
    ]}
  ]
}
